# Experimental data taken from PubChem BioAssay AID1259415 (National Center for Advancing Translational Sciences (NCATS), 2018).
# Hit rate of the full screen: of about 410,000 compounds, about 18,000 (4.4%) were called active. The shares of active, inactive and inconclusive entries below differ from those in the screen. Cut-off read from the data, not from the text of the source: active = activity change below about -60%; inconclusive = no clear call, values can overlap the other calls; inactive = above about -39%.
# Assay: qHTS Assay for inhibitors of the human cytomegalovirus (HCMV)
# Settings: HFF cells, HCMV-luciferase reporter, 72 h; at 57.5 µM; hits give low values
# Procedure, shortened: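 Two-dose cell screen: HFF monolayers treated with compounds and infected with luciferase-expressing HCMV at 1 PFU/cell, 72 h at 37C, then lysed for luciferase measurement.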
# % is set by controls: 0 for no effect and ±100 for the full control effect.
row,Compound,"activity change, negative = inhibition"
1,Cc1ccc(NC(=O)c2cc(S(=O)(=O)N3CCOCC3)c(Cl)cc2Cl)cc1,inconclusive: -58.5%
2,Cc1ccc(C(=O)Nc2ccc3c(c2)OCCO3)c(Cl)c1,inconclusive: -45.3%
3,CCOc1c(Cl)cc(/C=N/O)cc1OC,inconclusive: -41.4%
4,O=C(CSc1nccn1Cc1ccc(Cl)cc1)NC1CCCC1,active: -62.6%
5,CCCCOC(=O)NC1CCc2cc(OC)c(OC)c(OC)c2-c2ccc(SC)c(=O)cc21 (centres undefined),active: -79.8%
6,COc1ccc(C(=O)NCC2CCCCC2)cc1S(=O)(=O)N1CCCC1,inconclusive: -44.5%
7,CCOC(=O)c1ccc(NC(=O)CCc2c(C)nc3c(c(C)nn3C)c2C)cc1,inactive: -3.64%
8,O=S(=O)(c1cccc(Br)c1)N1CCN(c2ncnc3scc(-c4ccccc4)c23)CC1,inconclusive: -56.4%
9,O=C1C=CC(=O)N1c1cccc2cccnc12,inconclusive: -42.1%
10,CCN(CC)C(=O)C1CCCN(c2ccc([N+](=O)[O-])cc2[N+](=O)[O-])C1 (centres undefined),inconclusive: -58.5%
11,COc1ccc(Cn2c(C3CC3)nc3ccc(NC(=O)C4CC4)cc3c2=O)cc1,inactive: 4.77%
12,CCOC(=O)C1C(=O)C=C(c2ccc(C)cc2)CC1c1ccc([N+](=O)[O-])cc1 (centres undefined),active: -70.7%
13,CC(Nc1ccccc1N1CCCCC1)C(=O)N1CCc2ccccc21 (centres undefined),active: -69.9%
14,C=CCn1c(O)c(C(CC)=NCc2ccc3c(c2)OCO3)c(=O)[nH]c1=O,inactive: 21.9%
15,Cc1nc2ccc(-c3nc4ccccc4[nH]3)cc2[nH]1,inactive: -3.95%
16,Cc1ccc(Cl)cc1NC(=O)c1ccc(-c2nc(CSc3ccccc3)c(C)o2)cc1,inconclusive: -49.7%
17,Fc1ccccc1NC(=S)N1CCN(Cc2ccc3c(c2)OCO3)CC1,inconclusive: -52.7%
18,COc1ccccc1NC(=O)c1ccc(Br)c(S(=O)(=O)N2CCCC2)c1,inconclusive: -46.5%
19,COc1ccccc1CNC(=O)COC(=O)Cn1cnc2c1c(=O)n(C)c(=O)n2C,inactive: 1.2%
20,Cc1ccc(C(C(=O)NC(C)(C)C)N(CCCN2CCOCC2)C(=O)c2ccc(-c3ccccc3)[nH]2)o1 (centres undefined),active: -74%
21,CCCNc1nc2c(c(=O)n(C)c(=O)n2C)n1Cc1cccc(C)c1,active: -62.3%
22,CCOc1ccc2[nH]cc(C(=O)NCc3ccc(F)cc3)c(=O)c2c1,active: -71%
23,Cc1ccc2c(CNCCc3ccc(Cl)cc3)c(C(=O)O)n(Cc3ccc(F)cc3)c2c1,active: -106%
24,CCOc1ccc(S(=O)(=O)N2CCCCC2)cc1NC(=O)Cc1cc(OC)c(OC)c(OC)c1,active: -88.1%
25,Cc1ccc(N=Nc2ccc(O)c3ncccc23)cc1,active: -95.5%
26,CN(C)c1ccc(/C=N/N=C(N)N)cc1[N+](=O)[O-],inconclusive: -53.8%
27,CSc1nc(O)c(C(c2ccc(F)cc2)c2c(O)nc(SC)[nH]c2=O)c(=O)[nH]1,inconclusive: -55.4%

row,Compound,"activity change, negative = inhibition"
1,Cc1nc2sc3c(c2c(=O)[nH]1)CCC3,inconclusive: -41.7%
2,COc1cc(OC)c2c(-c3ccccc3)cc(=O)oc2c1C(CCN1CCCC(C)C1)c1ccc(N(C)C)cc1 (centres undefined),inconclusive: -41.9%
3,CC(C)(C)c1ccc(C(=O)N2CCC2(C)C(=O)NCc2cccs2)cc1 (centres undefined),inconclusive: -51.5%
4,Cc1cc(C)c2c(=O)n(CC(=O)NC3CCCC3)sc2n1,inconclusive: 0%
5,CC1(C)Cc2c(ccc3ccccc23)C(=O)N1,inconclusive: -54.6%
6,COc1cc(/C=C/C(=O)OCC(=O)NCCN2C(=O)CSC2=O)ccc1OC(F)F,inconclusive: -46.1%
7,COc1ccc(CN2CCNCC2)c(OC)c1OC,inconclusive: -57.7%
8,Cc1nc2ccccn2c1-c1ccnc(SCc2ccc(Cl)cc2)n1,inconclusive: -47.4%
9,Cc1cc(=O)n2c3ccccc3n(CC(O)CN3CCCCC3)c2c1C#N (centres undefined),active: -87.3%
10,CCOC(=O)C1=CCN(S(=O)(=O)c2ccc(Br)cc2)C1c1cccc(C)c1 (centres undefined),inactive: -16.3%
11,CC(C)(C)NC(=O)C(c1c[nH]c2ccccc12)N(C(=O)Cn1nnc(-c2ccc(Cl)cc2)n1)c1ccccc1F (centres undefined),inconclusive: -56.4%
12,COc1ccc([C@H]2C[C@H](O)[C@@H](n3cc(-c4ccc(F)cc4)nn3)CN2Cc2cccs2)cc1,active: -67.1%
13,C=C1CCN([C@@H](Cc2ccccc2)C(=O)NCc2ccc(Cl)cc2)S(=O)(=O)c2ccccc21,inactive: -14.6%
14,Cc1ccc(C)c(NC(=O)CCNS(=O)(=O)c2ccc3c(c2)CCCC(=O)N3)c1,inactive: -13.9%
15,CC(=O)N1Cc2ccccc2CC1C(=O)N1CCN(c2ccccc2)CC1 (centres undefined),inconclusive: -49%
16,CCN1C(=O)[C@H]2[C@@H](c3ccc(-c4ccc(OC)cc4)cc3)N3CCC[C@@]3(C(=O)OC)[C@H]2C1=O,active: -101%
17,C=CCNC(=S)NNc1nc2c(c(=O)[nH]1)C1(CCCCC1)Cc1ccccc1-2,inconclusive: -40.8%
18,COc1ccc(CNCC(O)(c2ccccc2)c2ccc(Cl)cc2)cc1 (centres undefined),inconclusive: -40.5%
19,COc1ccc(Cl)cc1NC(=O)c1ccoc1C,inactive: 26.2%
20,N/C(Cc1ccc([N+](=O)[O-])cc1)=N\OC(=O)COc1ccccc1Cl,active: -102%
21,Cc1cc(NC(=O)CSc2n[nH]c(=O)[nH]c2=O)ccc1Br,inconclusive: -42%
22,CCCc1nnc(NC(=O)c2nc(S(=O)(=O)Cc3ccc(C)cc3)ncc2Cl)s1,inconclusive: -44.4%
23,CCOC(=O)c1cc(-c2ccccc2)n(CCCC(=O)Nc2ccc(CC)cc2)c1C,inconclusive: 0%
24,COc1cc(SC#N)ccc1N=Cc1c(C)[nH]n(-c2ccc(Cl)cc2)c1=O,inactive: 21.5%
25,CCOc1ncccc1C(=O)Nc1ccc(Cl)c(S(=O)(=O)N2CCCC2)c1,inconclusive: -49.8%
26,CCCN1CCC(NC(=O)Nc2cc(Cl)ccc2OC)CC1,inactive: 8.78%
27,O=C(CSc1nc(-c2cccs2)cc(C(F)(F)F)n1)NCCCn1ccnc1,inconclusive: -56.3%

# A different layout for some results above:
row	Compound	activity change, negative = inhibition
4	Cc1cc(C)c2c(=O)n(CC(=O)NC3CCCC3)sc2n1	inconclusive: 0%
10	CCOC(=O)C1=CCN(S(=O)(=O)c2ccc(Br)cc2)C1c1cccc(C)c1 (centres undefined)	inactive: -16.3%
16	CCN1C(=O)[C@H]2[C@@H](c3ccc(-c4ccc(OC)cc4)cc3)N3CCC[C@@]3(C(=O)OC)[C@H]2C1=O	active: -101%
21	Cc1cc(NC(=O)CSc2n[nH]c(=O)[nH]c2=O)ccc1Br	inconclusive: -42%
23	CCOC(=O)c1cc(-c2ccccc2)n(CCCC(=O)Nc2ccc(CC)cc2)c1C	inconclusive: 0%
